Library screen at single concentrations

Protein sequences, listed by entry. Tags and fused reporters are not part of them. Residues count along the entry.
UniProt I6X8D2, whole entry: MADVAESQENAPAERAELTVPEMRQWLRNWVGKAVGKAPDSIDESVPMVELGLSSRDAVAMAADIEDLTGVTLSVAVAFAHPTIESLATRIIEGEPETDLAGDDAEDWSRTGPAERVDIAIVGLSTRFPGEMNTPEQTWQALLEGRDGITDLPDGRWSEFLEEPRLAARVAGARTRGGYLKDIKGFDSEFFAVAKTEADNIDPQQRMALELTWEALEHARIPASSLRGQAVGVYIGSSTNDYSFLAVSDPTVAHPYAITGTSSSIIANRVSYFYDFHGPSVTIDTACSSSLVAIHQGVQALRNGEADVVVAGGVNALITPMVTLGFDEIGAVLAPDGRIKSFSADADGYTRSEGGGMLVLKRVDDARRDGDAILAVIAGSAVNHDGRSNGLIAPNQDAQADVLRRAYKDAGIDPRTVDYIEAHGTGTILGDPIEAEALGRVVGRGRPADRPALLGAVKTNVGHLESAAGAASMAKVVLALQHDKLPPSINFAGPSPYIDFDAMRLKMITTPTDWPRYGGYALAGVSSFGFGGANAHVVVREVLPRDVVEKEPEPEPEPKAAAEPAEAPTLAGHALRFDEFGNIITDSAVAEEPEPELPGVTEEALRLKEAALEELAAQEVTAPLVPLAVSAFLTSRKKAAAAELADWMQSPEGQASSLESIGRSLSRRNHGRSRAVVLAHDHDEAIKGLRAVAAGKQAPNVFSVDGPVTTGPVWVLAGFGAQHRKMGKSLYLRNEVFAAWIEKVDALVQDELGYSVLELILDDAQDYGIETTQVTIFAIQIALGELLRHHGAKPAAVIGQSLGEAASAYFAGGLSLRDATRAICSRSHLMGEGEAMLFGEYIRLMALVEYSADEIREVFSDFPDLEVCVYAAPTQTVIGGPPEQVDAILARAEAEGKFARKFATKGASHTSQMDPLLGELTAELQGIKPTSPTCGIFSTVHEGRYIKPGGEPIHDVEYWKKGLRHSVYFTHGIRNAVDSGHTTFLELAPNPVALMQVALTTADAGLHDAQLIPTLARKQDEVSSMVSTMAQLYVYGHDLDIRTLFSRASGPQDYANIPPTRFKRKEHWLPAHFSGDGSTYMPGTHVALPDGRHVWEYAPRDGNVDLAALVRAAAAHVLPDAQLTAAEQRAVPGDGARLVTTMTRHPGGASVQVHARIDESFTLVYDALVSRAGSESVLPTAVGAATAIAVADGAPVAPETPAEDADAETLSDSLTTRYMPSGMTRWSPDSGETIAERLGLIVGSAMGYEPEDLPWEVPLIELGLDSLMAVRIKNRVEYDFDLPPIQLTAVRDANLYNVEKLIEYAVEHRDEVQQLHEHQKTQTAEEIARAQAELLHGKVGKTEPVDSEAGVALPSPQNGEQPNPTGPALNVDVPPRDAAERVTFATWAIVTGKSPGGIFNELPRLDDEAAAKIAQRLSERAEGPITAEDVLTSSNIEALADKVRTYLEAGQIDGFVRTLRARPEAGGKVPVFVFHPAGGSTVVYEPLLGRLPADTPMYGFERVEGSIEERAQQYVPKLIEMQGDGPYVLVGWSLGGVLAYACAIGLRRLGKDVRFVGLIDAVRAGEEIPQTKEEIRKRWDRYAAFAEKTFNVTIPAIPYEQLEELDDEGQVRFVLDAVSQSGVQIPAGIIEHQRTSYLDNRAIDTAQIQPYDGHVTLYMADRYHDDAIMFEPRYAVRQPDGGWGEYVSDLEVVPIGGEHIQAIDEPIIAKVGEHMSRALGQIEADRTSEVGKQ
UniProt Q8IDJ8, 1-583: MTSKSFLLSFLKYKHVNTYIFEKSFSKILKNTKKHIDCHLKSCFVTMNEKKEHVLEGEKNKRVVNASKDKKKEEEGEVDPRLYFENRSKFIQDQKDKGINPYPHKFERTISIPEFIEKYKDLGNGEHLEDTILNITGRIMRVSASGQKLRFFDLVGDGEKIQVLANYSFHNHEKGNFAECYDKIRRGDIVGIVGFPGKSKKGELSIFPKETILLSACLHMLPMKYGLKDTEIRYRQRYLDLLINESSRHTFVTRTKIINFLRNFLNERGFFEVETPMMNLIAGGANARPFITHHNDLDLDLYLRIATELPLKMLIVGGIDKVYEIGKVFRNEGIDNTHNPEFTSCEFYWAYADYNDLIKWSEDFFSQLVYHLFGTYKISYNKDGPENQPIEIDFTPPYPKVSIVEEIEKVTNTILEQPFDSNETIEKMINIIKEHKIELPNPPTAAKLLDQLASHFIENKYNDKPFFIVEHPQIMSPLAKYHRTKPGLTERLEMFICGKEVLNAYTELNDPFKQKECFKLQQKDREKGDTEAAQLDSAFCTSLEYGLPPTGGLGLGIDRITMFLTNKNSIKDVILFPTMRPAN
UniProt A4I591, 1-473: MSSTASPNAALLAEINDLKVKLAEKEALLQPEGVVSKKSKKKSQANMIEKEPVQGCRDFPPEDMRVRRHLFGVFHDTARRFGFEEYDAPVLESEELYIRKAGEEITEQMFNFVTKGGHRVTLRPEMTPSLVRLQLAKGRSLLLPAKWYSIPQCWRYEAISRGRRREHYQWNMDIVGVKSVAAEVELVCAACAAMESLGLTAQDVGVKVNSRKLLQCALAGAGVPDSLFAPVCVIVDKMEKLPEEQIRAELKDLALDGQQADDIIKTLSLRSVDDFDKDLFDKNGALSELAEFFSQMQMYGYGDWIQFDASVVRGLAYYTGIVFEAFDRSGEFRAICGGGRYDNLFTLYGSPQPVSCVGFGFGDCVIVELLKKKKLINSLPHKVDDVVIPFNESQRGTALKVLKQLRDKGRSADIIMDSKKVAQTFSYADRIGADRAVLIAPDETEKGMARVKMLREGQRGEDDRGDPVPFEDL
UniProt P9WFT3, whole entry: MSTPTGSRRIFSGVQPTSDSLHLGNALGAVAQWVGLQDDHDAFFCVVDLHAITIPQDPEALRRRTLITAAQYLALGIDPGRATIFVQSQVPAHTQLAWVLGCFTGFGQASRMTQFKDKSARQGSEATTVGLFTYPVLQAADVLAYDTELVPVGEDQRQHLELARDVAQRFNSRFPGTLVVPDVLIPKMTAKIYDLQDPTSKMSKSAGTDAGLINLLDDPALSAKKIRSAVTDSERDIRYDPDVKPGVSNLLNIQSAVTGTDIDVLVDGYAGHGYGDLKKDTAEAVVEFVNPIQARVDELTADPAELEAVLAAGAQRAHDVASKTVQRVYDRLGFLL

Data taken from ChEMBL document CHEMBL3988442, “University of Dundee, Small-Polar-MMV Screening Library” (2021).

Pks13 thioesterase: 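Polyketide synthase Pks13, Mycobacterium tuberculosis (UniProt I6X8D2). Enzyme assay of the thioesterase domain of polyketide synthase 13; the read-out is not stated. Concentration: 30 µM. The record gives no direction; the compounds picked for IC50 retests had high values, so higher reads as stronger inhibition. Size under these conditions: about 67,000 compounds, about 300 of them at 50% or above in at least one test.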
PfKRS1: 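Lysine-tRNA ligase, Plasmodium falciparum 3D7 (UniProt Q8IDJ8). Enzyme assay of the cytosolic lysyl-tRNA synthetase in 384-well plates, read by luminescence. Concentration: 30 µM. Direction is inferred from only a few compounds that gave an IC50; most scored high, so higher reads as stronger inhibition. Size under these conditions: about 69,000 compounds, about 49 of them at 50% or above in at least one test.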
LiHisRS: 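Enzyme assay of histidyl-tRNA synthetase; the read-out is not stated. Target: Histidine-tRNA ligase, Leishmania infantum (UniProt A4I591). Concentration: 30 µM. The record gives no direction; compounds that gave an IC50 in retests scored well above the rest, so higher reads as stronger inhibition. The assay is labelled LdHisRS but filed under L. infantum. Size under these conditions: about 69,000 compounds, about 410 of them at 50% or above in at least one test.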
MtTrpRS: 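Tryptophan-tRNA ligase, Mycobacterium tuberculosis (UniProt P9WFT3). Enzyme assay of tryptophanyl-tRNA synthetase; the read-out is not stated. Concentration: 10 µM. Higher most likely means stronger inhibition; the record gives no direction and few retests gave an IC50. Of about 65,000 compounds tested this way, about 64 (0.098%) reached 50% or more in at least one test.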

The filed quantity is “Percent Effect” (%). The controls that fix the scale are not given in the record; negative values are as filed. This is an unselected part of the compounds tested.

Result for O=C1COC2(CCN(c3ncccn3)CC2)CN1 was Pks13 thioesterase: -12.15%; PfKRS1: -0.2053%; LiHisRS: 21.05%; MtTrpRS: -0.1803%.
Result for O=C(CCCN1C(=O)CCC1=O)NCC1(c2ccccc2)CCC1 was Pks13 thioesterase: -12.14%; PfKRS1: -0.2762%; LiHisRS: 11.86%; MtTrpRS: -12.38%.
Result for O=S(=O)(C1CC1)N1CCO[C@@H]2CN(Cc3cccs3)C[C@@H]2C1 was Pks13 thioesterase: -30.02%; PfKRS1: 4.266%; LiHisRS: 15.38%; MtTrpRS: 1.066%.
Result for CN(C)CC(=O)N1Cc2nc(C(=O)NCc3ccccc3)oc2C1 was Pks13 thioesterase: 72.26%; PfKRS1: -5.619%; LiHisRS: 5.882%; MtTrpRS: 8.477%.
Result for CC(=O)N1C[C@@H]2CC[C@H](C1)N(S(=O)(=O)c1ccc(C#N)cc1Cl)C2 was Pks13 thioesterase: -10.98%; PfKRS1: 1.562%; LiHisRS: 9.836%; MtTrpRS: 2.318%.
Result for COc1ccc(C(=O)N(C)Cc2cccc(C#N)c2)c(OC)c1OC was Pks13 thioesterase: -7.344%; PfKRS1: -2.758%; LiHisRS: 5.769%; MtTrpRS: 3.002%.
Result for CCN(CCNC(=O)C1CCCN(C(C)=O)C1)c1ccccc1C (stereo not drawn) was Pks13 thioesterase: -4.823%; PfKRS1: 2.446%; LiHisRS: 7.895%; MtTrpRS: -1.971%.
Result for CC(C)c1nc(S(=O)(=O)N(C)c2cc(F)ccc2F)c[nH]1 was Pks13 thioesterase: -10.42%; PfKRS1: 0.3307%; LiHisRS: -1.709%; MtTrpRS: -6.353%.